Test results taken from publication PMC7156037.
Results are given in words; binding and its absence hold for the method and conditions named. In cells and extracts the contact can be indirect. Some binding calls cover weakened binding; strength is not graded here. Sequences can lack the tags named with a protein.

Molecular target: T1, … OF … (MAIN), FLAG-tagged (A. thaliana) (UniProt Q9LMT7)
T1 sequence: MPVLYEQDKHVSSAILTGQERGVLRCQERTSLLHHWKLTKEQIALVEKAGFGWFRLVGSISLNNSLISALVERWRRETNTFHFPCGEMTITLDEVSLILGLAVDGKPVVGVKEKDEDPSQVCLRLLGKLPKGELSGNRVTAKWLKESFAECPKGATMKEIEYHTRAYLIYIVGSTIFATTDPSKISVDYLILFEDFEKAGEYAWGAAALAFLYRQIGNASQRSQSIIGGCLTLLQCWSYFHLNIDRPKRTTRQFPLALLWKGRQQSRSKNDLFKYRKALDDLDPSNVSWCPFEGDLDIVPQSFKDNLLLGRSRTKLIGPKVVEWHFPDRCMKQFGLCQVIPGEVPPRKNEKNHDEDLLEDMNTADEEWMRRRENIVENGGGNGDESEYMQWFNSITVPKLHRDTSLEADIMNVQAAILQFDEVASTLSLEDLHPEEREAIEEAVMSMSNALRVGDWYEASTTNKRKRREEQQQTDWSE
Experiment: co-IP; FLAG-tagged bait captured on M2 magnetic FLAG-beads from extract of 3-week-old seedlings co-expressing both tagged proteins; IP buffer 50mM Tris pH 7.6, 150mM NaCl, 5mM MgCl2, 0.1% Nonidet P-40, 10% glycerol, 0.5 mM DTT; 2 hour at 4°C; three washes; Western blot with anti-FLAG and anti-MYC; plants expressing only one tagged protein as negative controls

- binding: binds
B1: MAIN-LIKE 1 (MAIL1), MYC-tagged (protein, UniProt Q9SK32 1-509)
chain: MDIDVGPVDPSVLYEQDLHVSSAVWEGQERGLLRCQEHTSLLHQWKLTDEQINLVDKAGFGYFRKIGPMSLNNSLISALVERWRRETNTFHLPLGEMTITLDEVALVLGLEIDGDPIVGSKVGDEVAMDMCGRLLGKLPSAANKEVNCSRVKLNWLKRTFSECPEDASFDVVKCHTRAYLLYLIGSTIFATTDGDKVSVKYLPLFEDFDQAGRYAWGAAALACLYRALGNASLKSQSNICGCLTLLQCWSYFHLDIGRPEKSEACFPLALLWKGKGSRSKTDLSEYRRELDDLDPSKITWCPYERFENLIPPHIKAKLILGRSKTTLVCFEKIELHFPDRCLRQFGKRQPIPLKVKRRDRKNRRLDDLDTSMSLACEEWAERGDHIVDSPGGGNVVDDGAYMEWYARISITKLYREAFLESQVMNMIACMREFEEAASGIALERLSPAEREVMESVKDTFANSLTFGGWQEVAVNSGYGKRRRRNEHTPTPNNGGGNDISSLLLQKEDS
